In the assay the target is T1, hTUT4 CCHC-ZnF3 (1354-1382) (human) (UniProt Q5TAX3).
T1 sequence (chain, 15N-labelled): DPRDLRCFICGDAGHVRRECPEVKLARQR
The assay is described as follows: NMR 15N T1 and T2 relaxation + comparison of 15N HSQC spectra; 15N-labelled hTUT4 ZnF2-3 di-domain (1293-1382), both domains on one chain; T1 and T2 at 800 MHz, rotational correlation times of each domain; HSQC spectra of isolated ZnF2 and ZnF3 overlaid with ZnF2-3; both purified.

No constants are given. Whether binding was seen depends on the method and setting.

Consider RCCRVCGKIGHYMKDCPKRKSSLLFRLKK (domain or fragment, UniProt Q5TAX3-3 1293-1321, 15N-labelled) [hTUT4 CCHC-ZnF2 (1293-1321)], for which the binding entry was “no binding”.

The record behind these values is PMC8782169, “The distinct RNA-interaction modes of a small ZnF domain underlay TUT4(7) diverse action in miRNA regulation”.
